Results as given in the supplement of paper PMC11732987, “Enantioselective OTUD7B fragment discovery through chemoproteomics screening and high-throughput optimisation” (Communications Chemistry, 2025).
The list shows a part of the results. The data scatter; read single values as rough.

Amino acid sequences for entries named in this document (tags omitted). A change or cut given only in a name is not applied to a line headed by its entry. Residues count along the entry.
UniProt O94829: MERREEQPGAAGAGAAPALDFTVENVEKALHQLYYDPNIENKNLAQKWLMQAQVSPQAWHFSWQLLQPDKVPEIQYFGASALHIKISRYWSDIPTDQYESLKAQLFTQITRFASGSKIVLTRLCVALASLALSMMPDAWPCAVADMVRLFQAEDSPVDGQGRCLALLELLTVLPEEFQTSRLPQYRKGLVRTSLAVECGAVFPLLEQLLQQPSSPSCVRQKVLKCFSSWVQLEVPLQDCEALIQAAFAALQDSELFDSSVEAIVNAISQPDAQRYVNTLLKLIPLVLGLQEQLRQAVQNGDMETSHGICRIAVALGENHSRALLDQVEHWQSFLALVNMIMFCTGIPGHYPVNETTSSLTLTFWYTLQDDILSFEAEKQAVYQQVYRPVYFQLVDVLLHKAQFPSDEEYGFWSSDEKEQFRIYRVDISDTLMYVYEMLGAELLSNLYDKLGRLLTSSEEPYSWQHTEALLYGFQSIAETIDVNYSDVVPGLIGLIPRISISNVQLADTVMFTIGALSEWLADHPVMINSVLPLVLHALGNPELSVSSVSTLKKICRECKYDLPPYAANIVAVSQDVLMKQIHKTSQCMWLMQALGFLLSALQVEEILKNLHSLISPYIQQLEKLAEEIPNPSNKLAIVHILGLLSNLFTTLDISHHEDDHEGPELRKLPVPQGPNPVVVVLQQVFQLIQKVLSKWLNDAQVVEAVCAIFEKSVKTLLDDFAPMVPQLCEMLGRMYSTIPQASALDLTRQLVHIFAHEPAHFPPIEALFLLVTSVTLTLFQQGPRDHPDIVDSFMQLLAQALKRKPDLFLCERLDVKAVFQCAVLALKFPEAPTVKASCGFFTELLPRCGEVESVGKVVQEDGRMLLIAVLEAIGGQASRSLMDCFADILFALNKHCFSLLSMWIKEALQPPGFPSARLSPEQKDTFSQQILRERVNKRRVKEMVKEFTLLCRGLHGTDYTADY
UniProt A2RU49: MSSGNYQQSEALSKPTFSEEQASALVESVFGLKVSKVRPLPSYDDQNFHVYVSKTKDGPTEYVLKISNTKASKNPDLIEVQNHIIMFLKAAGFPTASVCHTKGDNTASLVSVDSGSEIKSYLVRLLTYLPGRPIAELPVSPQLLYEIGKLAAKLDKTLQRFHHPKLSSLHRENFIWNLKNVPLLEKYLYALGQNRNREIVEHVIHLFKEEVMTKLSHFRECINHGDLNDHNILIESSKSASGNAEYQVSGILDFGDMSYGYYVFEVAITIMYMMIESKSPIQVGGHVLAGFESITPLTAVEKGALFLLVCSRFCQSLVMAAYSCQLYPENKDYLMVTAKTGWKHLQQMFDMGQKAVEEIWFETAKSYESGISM
UniProt Q9H0C8: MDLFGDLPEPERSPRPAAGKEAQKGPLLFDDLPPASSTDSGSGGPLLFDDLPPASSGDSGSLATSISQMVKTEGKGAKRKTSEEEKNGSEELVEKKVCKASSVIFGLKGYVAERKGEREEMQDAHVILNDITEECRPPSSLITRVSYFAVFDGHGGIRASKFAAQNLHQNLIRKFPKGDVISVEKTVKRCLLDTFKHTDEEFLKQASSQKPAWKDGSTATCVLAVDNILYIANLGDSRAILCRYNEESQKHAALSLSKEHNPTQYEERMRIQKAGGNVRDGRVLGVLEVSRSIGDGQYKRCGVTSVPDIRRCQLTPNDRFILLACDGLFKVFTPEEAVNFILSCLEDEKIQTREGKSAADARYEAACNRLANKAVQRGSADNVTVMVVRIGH
UniProt Q9UL03, 238-266: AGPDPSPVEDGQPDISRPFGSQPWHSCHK
UniProt Q9UL03, whole entry, looked up: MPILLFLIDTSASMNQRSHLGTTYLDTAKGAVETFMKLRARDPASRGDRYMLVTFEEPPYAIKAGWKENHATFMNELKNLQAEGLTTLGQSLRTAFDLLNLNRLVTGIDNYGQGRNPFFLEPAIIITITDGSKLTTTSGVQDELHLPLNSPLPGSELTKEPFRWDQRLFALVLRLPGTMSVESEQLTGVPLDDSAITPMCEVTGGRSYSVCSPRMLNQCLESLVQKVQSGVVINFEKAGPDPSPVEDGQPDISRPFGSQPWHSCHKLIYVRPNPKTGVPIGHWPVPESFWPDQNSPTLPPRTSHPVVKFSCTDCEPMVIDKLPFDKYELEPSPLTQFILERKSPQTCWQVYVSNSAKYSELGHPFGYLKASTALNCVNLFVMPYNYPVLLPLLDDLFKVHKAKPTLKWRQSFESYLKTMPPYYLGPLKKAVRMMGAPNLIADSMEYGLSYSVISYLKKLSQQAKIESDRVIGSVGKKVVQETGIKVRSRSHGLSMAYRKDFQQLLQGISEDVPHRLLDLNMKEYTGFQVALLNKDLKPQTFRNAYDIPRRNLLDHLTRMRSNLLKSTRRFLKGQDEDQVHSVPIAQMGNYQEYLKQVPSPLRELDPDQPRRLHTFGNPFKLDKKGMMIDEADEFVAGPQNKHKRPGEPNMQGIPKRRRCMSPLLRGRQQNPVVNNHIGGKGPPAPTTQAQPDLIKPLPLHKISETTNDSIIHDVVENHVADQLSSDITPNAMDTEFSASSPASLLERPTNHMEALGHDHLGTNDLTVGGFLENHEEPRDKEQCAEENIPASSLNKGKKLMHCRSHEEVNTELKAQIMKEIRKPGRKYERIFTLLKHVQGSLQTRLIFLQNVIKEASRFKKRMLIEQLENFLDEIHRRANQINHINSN
UniProt O00425: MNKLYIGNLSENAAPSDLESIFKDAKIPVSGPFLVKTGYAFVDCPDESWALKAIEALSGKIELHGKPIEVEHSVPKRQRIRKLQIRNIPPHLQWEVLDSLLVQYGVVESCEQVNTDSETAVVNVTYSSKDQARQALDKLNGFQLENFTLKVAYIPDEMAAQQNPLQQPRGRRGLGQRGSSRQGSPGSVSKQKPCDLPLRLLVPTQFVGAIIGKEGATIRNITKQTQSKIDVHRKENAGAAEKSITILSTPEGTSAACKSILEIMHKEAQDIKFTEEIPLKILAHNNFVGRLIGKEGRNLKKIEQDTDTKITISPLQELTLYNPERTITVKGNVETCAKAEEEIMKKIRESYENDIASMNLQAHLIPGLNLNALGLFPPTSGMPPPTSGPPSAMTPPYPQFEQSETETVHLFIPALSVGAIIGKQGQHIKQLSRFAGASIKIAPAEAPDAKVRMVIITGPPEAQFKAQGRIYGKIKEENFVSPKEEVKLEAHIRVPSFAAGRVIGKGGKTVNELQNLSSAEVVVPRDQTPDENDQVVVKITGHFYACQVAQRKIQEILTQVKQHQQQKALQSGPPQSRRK
UniProt O43719: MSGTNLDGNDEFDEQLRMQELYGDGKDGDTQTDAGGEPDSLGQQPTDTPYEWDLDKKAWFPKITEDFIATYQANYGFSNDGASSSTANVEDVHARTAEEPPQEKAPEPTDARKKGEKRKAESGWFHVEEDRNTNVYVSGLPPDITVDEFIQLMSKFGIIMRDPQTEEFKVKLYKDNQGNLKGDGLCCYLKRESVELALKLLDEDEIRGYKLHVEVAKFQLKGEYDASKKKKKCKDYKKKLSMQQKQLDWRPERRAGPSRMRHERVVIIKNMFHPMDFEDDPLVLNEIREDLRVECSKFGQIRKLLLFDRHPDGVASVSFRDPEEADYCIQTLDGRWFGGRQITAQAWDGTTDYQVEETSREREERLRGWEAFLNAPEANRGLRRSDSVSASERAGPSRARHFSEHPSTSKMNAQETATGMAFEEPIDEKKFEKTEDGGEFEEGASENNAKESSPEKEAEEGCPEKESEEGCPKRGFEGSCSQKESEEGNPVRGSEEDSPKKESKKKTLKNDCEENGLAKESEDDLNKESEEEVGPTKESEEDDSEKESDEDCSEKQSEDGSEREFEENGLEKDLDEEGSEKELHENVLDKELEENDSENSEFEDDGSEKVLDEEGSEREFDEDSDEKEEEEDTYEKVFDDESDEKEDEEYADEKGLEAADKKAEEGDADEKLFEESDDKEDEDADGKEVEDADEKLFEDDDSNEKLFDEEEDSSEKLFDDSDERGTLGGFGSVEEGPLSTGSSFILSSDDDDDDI
UniProt P15260: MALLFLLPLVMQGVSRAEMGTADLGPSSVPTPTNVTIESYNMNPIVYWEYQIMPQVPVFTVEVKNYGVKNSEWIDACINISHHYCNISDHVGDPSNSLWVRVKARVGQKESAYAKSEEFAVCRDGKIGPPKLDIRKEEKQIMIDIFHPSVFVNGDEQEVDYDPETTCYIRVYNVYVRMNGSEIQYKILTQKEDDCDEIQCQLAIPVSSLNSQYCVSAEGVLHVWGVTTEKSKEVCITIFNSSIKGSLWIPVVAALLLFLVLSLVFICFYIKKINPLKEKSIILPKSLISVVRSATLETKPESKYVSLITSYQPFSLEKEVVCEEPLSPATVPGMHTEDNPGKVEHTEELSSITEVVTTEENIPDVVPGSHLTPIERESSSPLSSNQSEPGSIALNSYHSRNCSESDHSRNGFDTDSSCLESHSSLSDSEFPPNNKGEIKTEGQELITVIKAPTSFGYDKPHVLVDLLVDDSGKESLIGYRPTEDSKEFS
UniProt Q00613: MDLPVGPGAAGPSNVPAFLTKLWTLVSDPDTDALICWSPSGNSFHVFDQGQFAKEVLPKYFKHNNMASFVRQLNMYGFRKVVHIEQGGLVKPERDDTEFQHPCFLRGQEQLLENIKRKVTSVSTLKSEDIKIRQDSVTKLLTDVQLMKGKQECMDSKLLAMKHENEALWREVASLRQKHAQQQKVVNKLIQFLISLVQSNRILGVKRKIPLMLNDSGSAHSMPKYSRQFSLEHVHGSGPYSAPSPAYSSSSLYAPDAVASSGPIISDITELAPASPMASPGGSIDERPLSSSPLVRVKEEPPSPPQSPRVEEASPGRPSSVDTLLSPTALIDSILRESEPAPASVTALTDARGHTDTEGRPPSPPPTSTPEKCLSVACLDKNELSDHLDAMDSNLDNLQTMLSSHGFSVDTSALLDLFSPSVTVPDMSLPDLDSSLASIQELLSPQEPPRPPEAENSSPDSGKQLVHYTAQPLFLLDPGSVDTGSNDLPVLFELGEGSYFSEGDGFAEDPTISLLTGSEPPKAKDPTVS
UniProt Q9HBG6: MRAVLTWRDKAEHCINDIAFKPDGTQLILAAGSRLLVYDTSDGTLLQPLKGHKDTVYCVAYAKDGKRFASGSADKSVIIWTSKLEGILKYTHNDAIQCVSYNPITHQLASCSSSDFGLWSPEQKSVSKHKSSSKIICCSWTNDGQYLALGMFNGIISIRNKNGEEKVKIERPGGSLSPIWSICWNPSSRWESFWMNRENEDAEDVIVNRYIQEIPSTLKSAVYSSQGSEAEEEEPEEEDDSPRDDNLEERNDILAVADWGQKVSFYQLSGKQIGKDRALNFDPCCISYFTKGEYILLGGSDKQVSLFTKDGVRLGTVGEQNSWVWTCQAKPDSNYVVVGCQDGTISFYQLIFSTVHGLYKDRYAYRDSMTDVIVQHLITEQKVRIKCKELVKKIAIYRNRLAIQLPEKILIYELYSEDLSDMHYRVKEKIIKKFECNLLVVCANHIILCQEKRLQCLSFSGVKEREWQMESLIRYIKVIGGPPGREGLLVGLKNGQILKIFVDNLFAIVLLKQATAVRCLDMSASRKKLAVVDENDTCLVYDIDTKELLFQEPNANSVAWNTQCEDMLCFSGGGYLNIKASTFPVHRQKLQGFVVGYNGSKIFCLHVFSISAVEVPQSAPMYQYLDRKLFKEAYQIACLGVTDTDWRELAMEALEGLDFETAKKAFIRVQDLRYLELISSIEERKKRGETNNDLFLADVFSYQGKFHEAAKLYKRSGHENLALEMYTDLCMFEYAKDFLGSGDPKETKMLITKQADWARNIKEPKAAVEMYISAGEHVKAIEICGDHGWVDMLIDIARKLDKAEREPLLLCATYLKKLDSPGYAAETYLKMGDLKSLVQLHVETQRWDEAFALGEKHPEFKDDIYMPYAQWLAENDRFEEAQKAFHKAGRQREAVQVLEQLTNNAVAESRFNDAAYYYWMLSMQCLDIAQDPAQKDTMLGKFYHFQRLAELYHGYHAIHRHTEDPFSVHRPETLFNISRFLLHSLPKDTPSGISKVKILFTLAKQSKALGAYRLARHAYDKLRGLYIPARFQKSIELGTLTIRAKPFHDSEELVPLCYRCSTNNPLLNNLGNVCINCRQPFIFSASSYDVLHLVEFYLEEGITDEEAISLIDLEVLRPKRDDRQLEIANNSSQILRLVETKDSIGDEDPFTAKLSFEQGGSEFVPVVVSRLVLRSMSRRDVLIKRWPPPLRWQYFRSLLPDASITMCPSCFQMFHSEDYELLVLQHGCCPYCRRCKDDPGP
UniProt P80217: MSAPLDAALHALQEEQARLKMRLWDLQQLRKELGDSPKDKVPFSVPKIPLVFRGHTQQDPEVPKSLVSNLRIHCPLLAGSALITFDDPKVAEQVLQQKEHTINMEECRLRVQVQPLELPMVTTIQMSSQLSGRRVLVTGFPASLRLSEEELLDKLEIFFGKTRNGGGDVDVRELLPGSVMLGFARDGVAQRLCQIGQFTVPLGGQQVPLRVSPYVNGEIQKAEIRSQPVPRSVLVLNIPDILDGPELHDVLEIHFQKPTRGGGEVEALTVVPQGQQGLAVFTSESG
UniProt Q13123, 259-281: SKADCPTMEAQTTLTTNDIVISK
UniProt Q6P9B9, 2-36: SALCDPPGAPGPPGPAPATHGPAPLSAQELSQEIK

Experiments:
[1] = compound: ClCC(=O)N[C@@H]1CCCc2ccccc12; test: log2 mean competition ratio of IA-DTB cysteine labelling (DMSO/compound) (log2 ratio); higher = stronger cysteine engagement by compound; conditions: treatment time: 4 h, cell line lysate: HEK293T
Experimental: (§1)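 IA-DTB competitive cysteine chemoproteomics in HEK293T RIPA lysate. Lysates were treated with compound 29 or 30 at 50 or 200 µM for 4 h, then IA-DTB (500 µM, 1 h), trypsin-digested, NeutrAvidin-enriched and analysed by diaPASEF. Competition ratio = intensity DMSO / intensity compound (n=4 treated, n=64 DMSO); binding: mean log2 CR ≥ 1 and p ≤ 0.05 plus QC filters. Target is the cysteine site.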

[2] = compound: ClCC(=O)N[C@H]1CCCc2ccccc12; test: as above; conditions: treatment time: 4 h, cell line lysate: HEK293T
Experimental: as §1

| Target | log2 mean competition ratio ([1]; 50 µM) | log2 mean competition ratio ([1]; 200 µM) | log2 mean competition ratio ([2]; 50 µM) | log2 mean competition ratio ([2]; 200 µM) |
| --- | --- | --- | --- | --- |
| HPF1 C17 (UniProt Q9NWY4) | -0.00383 | 0.486 | – | – |
| INTS12 C379 (UniProt Q96CB8) | -0.00294 | 0.00206 | – | – |
| IPO13 C309 (UniProt O94829) | -0.0939 | 0.0246 | – | – |
| IQGAP3 C1254 (UniProt Q86VI3) | 0.149 | -0.208 | – | – |
| HUS1 C44 (UniProt O60921) | 0.477 | 0.367 | – | – |
| IGF2BP2 C255 (UniProt Q9Y6M1) | -0.143 | -0.0122 | – | – |
| HYKK C99 (UniProt A2RU49) | 0.103 | -0.246 | – | – |
| ILKAP C301 (UniProt Q9H0C8) | -0.136 | -0.0804 | – | – |
| HUWE1 C2721 | -0.138 | -0.2 | – | – |
| INTS13 C178 (UniProt Q9NVM9) | -0.0693 | 0.213 | – | – |
| INTS1 C1755 (UniProt Q8N201) | -0.206 | 0.0815 | – | – |
| HSPA1A;HSPA1B C306;(C306) | -0.41 | -0.299 | – | – |
| HSPH1 C245 | -0.0518 | 0.0511 | – | – |
| IPO4 C962 (UniProt Q8TEX9) | 0.147 | -0.18 | – | – |
| INTS6 C264 (UniProt Q9UL03) | 0.286 | 0.325 | – | – |
| INTU C692 (UniProt Q9ULD6) | 0.0349 | 0.768 | – | – |
| HPS5 C200 (UniProt Q9UPZ3) | 0.14 | 0.189 | – | – |
| IMPA2 C152 (UniProt O14732) | -0.168 | -0.0418 | – | – |
| IGF2BP3 C44 (UniProt O00425) | -0.00775 | -0.161 | – | – |
| HUWE1 C689 | -0.109 | -0.0923 | – | – |
| ICE1 C265 (UniProt Q9Y2F5) | -0.0921 | 0.071 | – | – |

| Target | log2 mean competition ratio ([1]; 50 µM) | log2 mean competition ratio ([1]; 200 µM) | log2 mean competition ratio ([2]; 50 µM) | log2 mean competition ratio ([2]; 200 µM) |
| --- | --- | --- | --- | --- |
| HTATSF1 C295 (UniProt O43719) | -0.191 | -0.00442 | – | – |
| HUWE1 C2666 | -0.0608 | -0.0281 | – | – |
| IQGAP3 C919 (UniProt Q86VI3) | 0.0988 | 0.261 | – | – |
| HSPH1 C310 | -0.311 | 0.269 | – | – |
| HTATSF1 C471 (UniProt O43719) | -0.0278 | 0.385 | – | – |
| IGF2R C1856 (UniProt P11717) | 0.122 | 0.362 | – | – |
| IP6K1 C48 (UniProt Q92551) | -0.00514 | 0.154 | – | – |
| IFNGR1 C122 (UniProt P15260) | -0.144 | -0.0935 | – | – |
| HTATSF1 C480 (UniProt O43719) | -0.108 | 0.00542 | – | – |
| HPCAL4 C187 | -0.0536 | -0.225 | – | – |
| HSF1 C103 (UniProt Q00613) | 0.0863 | 0.88 | – | – |
| IARS1 C433 | 0.224 | -0.338 | – | – |
| IFT122 C519 (UniProt Q9HBG6) | 0.0389 | -0.00314 | – | – |
| INTS4 C751 (UniProt Q96HW7) | -0.0526 | -0.177 | – | – |
| IGF2BP1 C44 (UniProt Q9NZI8) | 0.0628 | -0.204 | – | – |
| HPS1 C561 (UniProt Q92902) | 0.129 | -0.38 | – | – |
| IPO5 C1057 | 0.262 | 0.354 | 0.362 | 0.122 |
| HSPD1 C442 (UniProt P10809) | -0.00593 | 0.213 | 0.318 | 0.467 |
| IFIT5 C476 (UniProt Q13325) | -0.419 | -0.106 | -0.497 | -0.0532 |
| INCENP C163 (UniProt Q9NQS7) | -0.243 | 0.0152 | 0.0272 | -0.187 |
| IFT140 C663 (UniProt Q96RY7) | 0.167 | 0.301 | 0.0566 | 0.227 |

| Target | log2 mean competition ratio ([1]; 50 µM) | log2 mean competition ratio ([1]; 200 µM) | log2 mean competition ratio ([2]; 50 µM) | log2 mean competition ratio ([2]; 200 µM) |
| --- | --- | --- | --- | --- |
| IRAK4 C436 (UniProt Q9NWZ3) | -0.116 | 0.00317 | -0.127 | -0.245 |
| IARS1 C336 | 0.287 | -0.168 | -0.188 | -0.196 |
| INTS3 C731 (UniProt Q68E01) | -0.0199 | 0.127 | 0.0296 | 0.355 |
| HTT C278 (UniProt P42858) | 0.216 | 0.108 | 0.229 | 0.089 |
| IDH2 C113 (UniProt P48735) | -0.11 | -0.139 | -0.195 | -0.165 |
| HSPA4 C417 (UniProt P34932) | -0.239 | -0.139 | 0.0225 | 0.0278 |
| HUWE1 C29 | -0.0544 | 0.241 | -0.198 | 0.0902 |
| IFT172 C517 (UniProt Q9UG01) | -0.242 | 0.0366 | -0.68 | 0.222 |
| IKBKB C464 (UniProt O14920) | 0.175 | 0.519 | 0.513 | 0.67 |
| INTS6 C659 (UniProt Q9UL03) | 0.151 | 0.452 | -0.0706 | 0.648 |
| IFI35 C107 (UniProt P80217) | 0.2 | 0.0662 | 0.0481 | -0.00981 |
| INTS4 C558 (UniProt Q96HW7) | 0.0461 | -0.351 | -0.124 | -0.0505 |
| IL17RA C632 (UniProt Q96F46) | -0.37 | -0.073 | -0.119 | -0.0886 |
| INTS2 C1164 (UniProt Q9H0H0) | 0.233 | 0.184 | 0.251 | 0.276 |
| ICE1 C1254 (UniProt Q9Y2F5) | 0.131 | 0.621 | -0.0552 | 0.513 |
| IK C263 (UniProt Q13123) | -0.31 | -0.326 | 0.352 | -0.468 |
| INTS5 C5 (UniProt Q6P9B9) | -0.224 | 0.196 | 0.239 | -0.234 |
| ILKAP C367 (UniProt Q9H0C8) | -0.164 | 0.0476 | -0.267 | -0.0902 |
| IMPDH1 C215 (UniProt P20839) | 0.272 | 0.255 | 0.0667 | 0.169 |
| HSPH1 C650 | 0.0903 | 0.0631 | 0.0377 | -0.097 |
| HSPA9 C66 (UniProt P38646) | 0.147 | 0.206 | 0.229 | -0.0801 |

An excerpt from the list above:

| Target | log2 mean competition ratio ([1]; 50 µM) | log2 mean competition ratio ([1]; 200 µM) | log2 mean competition ratio ([2]; 50 µM) | log2 mean competition ratio ([2]; 200 µM) |
| --- | --- | --- | --- | --- |
| IFT172 C517 (UniProt Q9UG01) | -0.242 | 0.0366 | -0.68 | 0.222 |
| IKBKB C464 (UniProt O14920) | 0.175 | 0.519 | 0.513 | 0.67 |
| INTS6 C659 (UniProt Q9UL03) | 0.151 | 0.452 | -0.0706 | 0.648 |
